Results taken from publication PMC7538545.
These are yes or no findings as the source states them, for the method shown. In cells and extracts the contact can be indirect. Some results given as binding are weak or reduced against the parent protein; the word gives no strength. Tags and fused reporters may be left off the sequences shown.

Chains of the proteins cited; added tags and fusions are not shown. Residues count along the entry.
UniProt P07237, residues 18-508: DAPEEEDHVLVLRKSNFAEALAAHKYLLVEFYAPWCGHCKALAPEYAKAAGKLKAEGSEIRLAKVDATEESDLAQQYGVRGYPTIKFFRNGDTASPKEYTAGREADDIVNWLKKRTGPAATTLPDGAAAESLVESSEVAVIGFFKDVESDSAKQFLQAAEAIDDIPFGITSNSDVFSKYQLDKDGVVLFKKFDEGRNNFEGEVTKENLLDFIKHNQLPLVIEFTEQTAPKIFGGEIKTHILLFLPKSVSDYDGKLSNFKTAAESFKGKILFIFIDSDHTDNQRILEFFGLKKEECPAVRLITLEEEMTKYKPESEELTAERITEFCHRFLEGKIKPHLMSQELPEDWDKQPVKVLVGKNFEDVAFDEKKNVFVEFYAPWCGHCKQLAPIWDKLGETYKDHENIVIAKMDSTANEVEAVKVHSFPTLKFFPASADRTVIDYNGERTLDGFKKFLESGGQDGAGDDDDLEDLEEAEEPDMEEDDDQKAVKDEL
UniProt Q2GH86: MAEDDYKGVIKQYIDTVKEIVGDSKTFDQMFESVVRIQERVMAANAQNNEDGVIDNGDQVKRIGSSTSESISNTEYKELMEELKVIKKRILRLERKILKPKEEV

B1: GFP-Asp14 (14-kDa A. phagocytophilum surface protein) (protein, UniProt Q2GL86 1-124)
chain: MIPLAPWKSISVVYMSGSDEYKEIIKQCIGSVKEVFGEGRFDDVVASIMKMQEKVLASSMQQDDTGTVGQIESGEGSGARLSDEQVQQLMNSIREEFKDDLRAIKRRILKLERAVYGANTPKES

Molecular target: Flag-PDI (protein disulfide isomerase) (UniProt P07237)
Assay: co-IP; Flag-PDI co-expressed with GFP-EplA, GFP-Asp14 or GFP in HEK-293T cells; 16 h after transfection lysates incubated with Flag antibody-conjugated agarose; eluates blotted with GFP and Flag antibodies

Molecule | binding
GFP-EplA (E. chaffeensis PDI ligand A, ECH_0377) (from UniProt Q2GH86 1-104) | binds
B1 | binds
